No end group written: not given here. Where only a bound is given, the exact number is not on record here.

This data set in a line: peptide synthesis. Conditions: late stage modification step.
For the substance PQTAIGVGAP-NH2, the step yield is >70%.
Then “Pro-Gln-Thr-Ala-Ile-Gly-Val-Gly-Ala-Pro-2-nitrophenylglycine (SEQ ID NO:12) amide”, with >90%.
Then “Tyr-Gly-Trp-Met-Asp-Phe-2-nitrophenylglycine amide”, with ~100%.

Source of the values: patent US5580751 (dated 1996).
